Measured values: patent publication US10138252B1, “Lactones” (Purdue Research Foundation, priority 2017, dated 2018)
Some entries share one result that the patent states for a list of compounds.

System: Caco-2 cell line
Assay: Cytotoxicity against human colorectal adenocarcinoma cell line (Caco-2), MTS
Conditions: tested at 32, 64, 128, 256 μM; 2 hours incubation; MTS viability vs DMSO control

| Compound | toxicity against Caco-2 cell line (no toxicity up to) [µM] |
| --- | --- |
| Cc1ccc(S(=O)(=O)N2CCC3=C2C(c2cccc(Br)c2)OC3=O)cc1 (centres unmarked) [Example 8, 6-(3-bromophenyl)-1-tosyl-1,2,3,6-tetrahydro-4H-furo[3,4-b]pyrrol-4-one] | > 256 |
| Cc1ccc(S(=O)(=O)N2CCC3=C2C2(COC2)OC3=O)cc1 [Example 19, 1-tosyl-2,3-dihydrospiro[furo[3,4-b]pyrrole-6,3′-oxetan]-4(1H)-one] | > 256 |
